No constants are given. Whether binding was seen depends on the method and setting. In cells and extracts the contact can be indirect. A yes stands for co-enrichment or nearness to the bait. Other partners may have been found.

The target in the assay is T1, ARG1 (arginase-1), endogenous (human (endogenous in HCT116 and RKO)) (UniProt P05089).
T1 sequence: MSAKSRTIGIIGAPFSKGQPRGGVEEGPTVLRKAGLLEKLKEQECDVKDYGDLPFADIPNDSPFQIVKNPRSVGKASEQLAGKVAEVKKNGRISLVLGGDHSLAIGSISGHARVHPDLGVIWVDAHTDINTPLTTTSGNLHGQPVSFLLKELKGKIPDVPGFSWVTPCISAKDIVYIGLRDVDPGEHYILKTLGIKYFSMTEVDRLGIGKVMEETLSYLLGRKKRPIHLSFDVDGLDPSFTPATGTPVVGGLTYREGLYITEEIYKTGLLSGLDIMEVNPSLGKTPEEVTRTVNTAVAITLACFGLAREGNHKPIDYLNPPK
The assay can be described thus: affinity purification with mass spectrometry; immunoprecipitation with anti-ARG1 antibody from lysate of HCT116 cells treated with BHB for 48 h; gel bands, trypsin, LC-MS (Q-Exactive).

In the case of “solute carrier family 3 member 2 (SLC3A2), endogenous (from UniProt P08195 1-529)”, the binding result is reported as “binds”.

These data come from publication PMC12520464.
